We go through three molecules from article PMC5466977.

Like-named read-outs stand apart in the source and are kept apart here. These are yes or no findings as the source states them, for the method shown. For part of these data: A result given as binding can be weak or reduced; the word gives no strength. For part of these data: Sequences can lack the tags named with a protein. For part of these data: Binding seen in cells or lysates may run through a third protein.

In assay [1] the target is recombinant His-tagged FlaC flagellin of C. jejuni (C. jejuni) (UniProt P96747). The assay is described as follows: far-Western, overlay or dot blot; 500 ng of total cell lysates of induced E. coli BL21 Star (DE3) expressing the His-tagged proteins (5 μg, 10x concentrated, for FlaAΔND0 and FlaAΔND1) separated by SDS-PAGE, on nitrocellulose; probed with 50 μg of purified GST-FliS, GST-FliW or GST in 2% skim milk TBS-T; anti-GST detection; only the binder purified.

The target in assay [2] is T1, recombinant His-tagged FlaB flagellin of C. jejuni (C. jejuni) (UniProt P22252).
T1 sequence: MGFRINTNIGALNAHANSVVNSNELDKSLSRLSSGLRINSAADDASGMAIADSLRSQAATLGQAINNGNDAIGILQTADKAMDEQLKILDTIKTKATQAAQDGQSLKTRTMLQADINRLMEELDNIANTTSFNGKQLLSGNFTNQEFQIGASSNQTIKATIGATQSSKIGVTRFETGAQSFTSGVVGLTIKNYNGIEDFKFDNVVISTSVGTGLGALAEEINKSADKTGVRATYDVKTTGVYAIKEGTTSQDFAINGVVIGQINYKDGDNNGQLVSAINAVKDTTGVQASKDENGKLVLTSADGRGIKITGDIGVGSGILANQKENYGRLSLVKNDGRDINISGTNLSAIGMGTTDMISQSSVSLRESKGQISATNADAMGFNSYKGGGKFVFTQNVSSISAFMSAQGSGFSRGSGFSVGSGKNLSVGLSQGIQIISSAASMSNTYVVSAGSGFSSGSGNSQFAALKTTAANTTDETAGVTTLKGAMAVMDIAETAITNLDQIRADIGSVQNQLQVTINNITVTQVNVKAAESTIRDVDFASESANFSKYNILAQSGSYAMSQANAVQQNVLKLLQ
The description is as above.

For assay [3], the target named is T2, recombinant His-tagged FlaA flagellin of C. jejuni (non-glycosylated, E. coli-derived) (C. jejuni) (UniProt P22251).
T2 sequence: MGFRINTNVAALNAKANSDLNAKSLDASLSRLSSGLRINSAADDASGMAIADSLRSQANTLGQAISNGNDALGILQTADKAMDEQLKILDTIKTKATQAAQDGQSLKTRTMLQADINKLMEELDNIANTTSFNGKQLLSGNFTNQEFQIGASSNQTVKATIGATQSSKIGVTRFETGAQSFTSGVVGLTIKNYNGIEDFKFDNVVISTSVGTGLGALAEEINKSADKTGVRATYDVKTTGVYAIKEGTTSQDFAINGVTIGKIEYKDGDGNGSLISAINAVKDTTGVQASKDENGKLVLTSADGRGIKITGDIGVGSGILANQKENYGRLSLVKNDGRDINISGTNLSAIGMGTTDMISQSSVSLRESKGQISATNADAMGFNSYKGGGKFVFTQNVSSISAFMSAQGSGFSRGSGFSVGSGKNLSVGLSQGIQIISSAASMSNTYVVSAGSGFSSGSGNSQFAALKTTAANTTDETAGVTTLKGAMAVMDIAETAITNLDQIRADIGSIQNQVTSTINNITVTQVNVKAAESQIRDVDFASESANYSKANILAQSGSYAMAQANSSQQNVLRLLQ
Described as above.

Assay [4] addresses T2, recombinant His-tagged FlaA flagellin of C. jejuni (non-glycosylated, E. coli-derived) (C. jejuni). Nature of the assay: far-Western, overlay or dot blot; serial dilutions (500, 250, 125, 62.5 ng) of purified His-tagged FlaA (in 4 M urea, 10 mM Tris, pH 9.0) separated by SDS-PAGE, blotted; probed with 50, 100, 200 μg of GST-FliS, 50 μg of GST-FliW or 200 μg of GST; both purified.

The target of assay [5] is T3, His-tagged RacR protein of C. jejuni (C. jejuni) (UniProt O68795).
T3 sequence: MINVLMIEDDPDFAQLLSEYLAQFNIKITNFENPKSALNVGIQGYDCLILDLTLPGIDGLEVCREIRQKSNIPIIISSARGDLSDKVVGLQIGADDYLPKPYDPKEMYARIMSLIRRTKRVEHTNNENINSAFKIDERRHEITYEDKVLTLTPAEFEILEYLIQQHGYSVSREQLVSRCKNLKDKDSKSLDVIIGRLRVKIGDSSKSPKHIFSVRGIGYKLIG
Nature of the assay: pull-down; His-tagged bait (FliS-His or RacR-His) refolded on Ni2+-NTA agarose beads; culture supernatant of C. jejuni BC7 added, 1 h at RT; washed with 20 mM Tris, 250 mM NaCl, 20 mM imidazole, pH 7.4; eluted with 300 mM imidazole; blots with anti-FlaA/B or anti-FlaC serum; only the target ….

For assay [6], the target named is T4, His-tagged FliS of C. jejuni (C. jejuni) (UniProt P0DPD3).
T4 sequence: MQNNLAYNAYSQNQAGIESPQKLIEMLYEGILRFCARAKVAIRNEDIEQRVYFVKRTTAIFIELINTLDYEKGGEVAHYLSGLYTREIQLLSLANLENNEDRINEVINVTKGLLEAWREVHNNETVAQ
The description is as above.

For assay [7], the target named is recombinant His-tagged FlaC flagellin of C. jejuni (C. jejuni) (UniProt P96747). Nature of the assay: far-Western, overlay or dot blot; 500 ng of total cell lysates of induced E. coli BL21 Star (DE3) expressing the His-tagged proteins (5 μg, 10x concentrated, for FlaAΔND0 and FlaAΔND1) separated by SDS-PAGE, on nitrocellulose; probed with 50 μg of purified GST-FliS, GST-FliW or GST in 2% skim milk TBS-T; anti-GST detection; only the binder purified. The source holds these as a separate data set.

For a further assay, the target named is FlaAΔCD0 (C. jejuni). The description is as above.
The target in a further assay is FlaAΔND0 (C. jejuni). The description is as above.
For another assay, the target named is FlaAΔND1 (C. jejuni). The description is as above.
Assay [8] deals with His-tagged FliC flagellin from S. enterica sv. Enteritidis (S. enterica sv. Enteritidis). Described as above.
A further assay has as its target FlaAΔCD1 (C. jejuni). The description is as above.
Assay [9] addresses C. jejuni-derived FlaC flagellin (culture supernatant of strain BC7) (C. jejuni (endogenous in strain BC7)). Nature of the assay: far-Western, overlay or dot blot; serial dilutions (500, 250, 125, 62.5 ng) of culture supernatant of C. jejuni BC7 (with or without 4 M urea) separated by SDS-PAGE, blotted; probed with 50, 100, 200 μg of GST-FliS, 50 μg of GST-FliW or 200 μg of GST; only the binder purified.

A further assay concerns the target FlaAΔC16 (C. jejuni). The assay is described as follows: far-Western, overlay or dot blot; 500 ng of purified full length FlaA and FlaAΔC10, FlaAΔC16, FlaAΔC39 separated by SDS-PAGE, on nitrocellulose; probed with 50 μg of GST-FliS or GST-FliW; anti-GST detection; both purified.
In another assay the target is FlaAΔC10 (C. jejuni). The assay is described as above.
The target in the next assay is FlaAΔC39 (C. jejuni). The description is as above.
For assay [10], the target named is FlaA/B flagellin of C. coli (C. coli (endogenous)). Nature of the assay: far-Western, overlay or dot blot; 10 μl of stationary-phase liquid cultures (OD600 1) of C. jejuni strains, C. coli and C. fetus separated by SDS-PAGE, on nitrocellulose; probed with 50 μg of GST-FliS, GST-FliW or GST; anti-GST detection; only the binder purified.
Assay [11] has as its target FlaA/B flagellin of C. fetus (C. fetus (endogenous)). Described as above.

On to “GST-tagged FliW of C. jejuni (from UniProt Q0P9H9)”, for which the binding entry in [1] is “no binding (tested: 50 μg of probe)”; in [2], “binds”; in [3], “binds”; in assay [4] it was “binds”.
As to “C. jejuni-derived FlaC flagellin (culture supernatant of strain BC7)”, the binding entry in assay [5] is listed as “no binding”; in [6] it was “binds”.

B1: GST-tagged FliS of C. jejuni (protein, UniProt P0DPD3 1-128)
chain: T4 sequence
As to B1, the binding result in [7] was “binds”; with FlaAΔCD0 (C. jejuni) it was “no binding (tested: 50 μg of probe)”; with FlaAΔND0 (C. jejuni), “binds”; with FlaAΔND1 (C. jejuni), “binds”; in assay [8], “no binding (tested: 50 μg of probe)”; with FlaAΔCD1 (C. jejuni), “no binding (tested: 50 μg of probe)”. Besides, the binding entry is “binds” in assay [9]; “no binding (tested: 50 μg of probe)” with FlaAΔC16 (C. jejuni); “no binding (tested: 50 μg of probe)” with FlaAΔC10 (C. jejuni); “no binding (tested: 50 μg of probe)” with FlaAΔC39 (C. jejuni); “binds” in [10]; “binds” in [11].
